Test results as given in PubChem BioAssay AID248 (DTP/NCI, 2004).
The list is a part of this screen's results and no random one: it is rich in T/C values a quarter to a half above the control, in often repeated tests (any T/C) and in doses without a T/C. Further doses and runs are listed elsewhere. T/C gives the treated animals as a percentage of the vehicle group. Some entries give survivors of the animals treated and no T/C: the source holds a T/C of zero for them, seemingly a mark for toxic or unscored doses. Some doses without a T/C left all or most animals alive at the check, yet need not have been tolerated: the source hardly ever lists a survival T/C far under the control, and the zero likely stands for such cases as well. Survivors were counted at the toxicity check, usually on the fifth day, unless a day is given; later deaths do not show. Schedules are NCI's codes, taken here to give the interval after Q, in days (D) or hours (H), and the number of doses after X. Some schedules carry Z or #; the key to these is not given. Where survival is the endpoint, this PubChem deposit counts one and a half times the control or more as active, and values a quarter to a half above the control carry no call in these data; other NCI protocols may use other cut-offs. Some T/C values carry the count of animals alive at the toxicity check (mostly the fifth day); without a count, all were alive then. Some entries were tested several times; their values stand side by side, smallest first. Signs of the kind (2×) stand for listed records that agree.

Tested on: L1210 leukemia ip in BDF1 mice, survival T/C
Assay: NCI In Vivo Anticancer Drug Screen. Data for tumor model L1210 Leukemia (intraperitoneal) in B6D2F1 (BDF1) mice
Details: T/C endpoint: mean survival time, higher T/C = longer survival

CN(Cc1cnc2nc(N)nc(N)c2n1)c1c(Cl)cc(C(=O)NC(CCC(=O)O)C(=O)O)cc1Cl (stereo not given)
T/C (dose: 0.25 mg/kg/injection, schedule: Q01DX Z (ip), vehicle: saline): 136 % of control | T/C (dose: 0.8 mg/kg/injection, schedule: Q03HX024 (ip), vehicle: alkali diluted with saline): 135 % of control [9 of 10 alive] | T/C (dose: 1.0 mg/kg/injection, schedule: Q01DX Z (ip), vehicle: saline): 148 % of control | survivor count (dose: 1.0 mg/kg/injection, schedule: Q01DX Z (oral), vehicle: alkali diluted with saline): 6 of 7 | T/C (dose: 1.25 mg/kg/injection, schedule: Q03HX008 (ip), vehicle: carboxymethylcellulose (CMC)): 125 % of control [8 of 10 alive] | T/C (dose: 1.5 mg/kg/injection, schedule: Q01DX Z (ip), vehicle: carboxymethylcellulose (CMC)): 147 % of control | T/C (dose: 1.56 mg/kg/injection, schedule: Q03HX024 (ip), vehicle: carboxymethylcellulose (CMC)): 139 % of control [9 of 10 alive] | T/C (dose: 3.0 mg/kg/injection, schedule: Q01DX Z (ip), vehicle: saline): 127 % of control | survivor count (dose: 3.13 mg/kg/injection, schedule: Q03HX024 (ip), vehicle: carboxymethylcellulose (CMC)): 5 of 10 | T/C (dose: 3.75 mg/kg/injection, schedule: Q03HX008 (ip), vehicle: carboxymethylcellulose (CMC)): 128 % of control | T/C (dose: 5.0 mg/kg/injection, schedule: Q#A X Z (ip), vehicle: olive oil, sesame oil, peanut oil): 141 % of control [5 of 6 alive] | T/C (dose: 7.5 mg/kg/injection, schedule: Q03HX008 (ip), vehicle: carboxymethylcellulose (CMC)): 132 % of control [7 of 10 alive] | T/C (dose: 9.0 mg/kg/injection, schedule: Q01DX Z (ip), vehicle: water): 147 % of control | T/C (dose: 10.0 mg/kg/injection, schedule: Q01DX005 (ip), vehicle: carboxymethylcellulose (CMC)): 131 % of control | T/C (dose: 10.0 mg/kg/injection, schedule: Q01DX005 (ip), vehicle: other): 130 % of control | T/C (dose: 10.0 mg/kg/injection, schedule: Q01DX007 (ip), vehicle: other): 148 % of control | T/C (dose: 10.0 mg/kg/injection, schedule: Q01DX007 (sc), vehicle: other): 126 % of control | T/C (dose: 10.0 mg/kg/injection, schedule: Q01DX009 (ip), vehicle: carboxymethylcellulose (CMC)): 130 % of control | T/C (dose: 10.0 mg/kg/injection, schedule: Q01DX009 (ip), vehicle: saline): 140, 146, 167, 177 % of control | T/C (dose: 10.0 mg/kg/injection, schedule: Q01DX009 (sc), vehicle: carboxymethylcellulose (CMC)): 126 % of control | survivor count (dose: 10.0 mg/kg/injection, schedule: Q#A X Z (ip), vehicle: methylcellulose (MC)): 6 of 6 | survivor count (dose: 12.8 mg/kg/injection, schedule: Q03HX024 (ip), vehicle: alkali diluted with saline): 8 of 10 | survivor count (dose: 15.0 mg/kg/injection, schedule: Q03HX008 (ip), vehicle: carboxymethylcellulose (CMC)): 6 of 10 | T/C (dose: 20.0 mg/kg/injection, schedule: Q01DX005 (ip), vehicle: carboxymethylcellulose (CMC)): 134 % of control | T/C (dose: 20.0 mg/kg/injection, schedule: Q01DX005 (ip), vehicle: other): 134 % of control | T/C (dose: 20.0 mg/kg/injection, schedule: Q01DX007 (sc), vehicle: other): 128 % of control | T/C (dose: 20.0 mg/kg/injection, schedule: Q01DX009 (ip), vehicle: saline): 154 (2×), 162, 173 % of control | T/C (dose: 20.0 mg/kg/injection, schedule: Q01DX009 (sc), vehicle: carboxymethylcellulose (CMC)): 136 % of control | T/C (dose: 30.0 mg/kg/injection, schedule: Q## X008 (ip), vehicle: alkali diluted with saline): 126 % of control [8 of 10 alive] | T/C (dose: 30.0 mg/kg/injection, schedule: Q#A X Z (ip), vehicle: olive oil, sesame oil, peanut oil): 131 % of control | T/C (dose: 40.0 mg/kg/injection, schedule: Q01DX005 (ip), vehicle: carboxymethylcellulose (CMC)): 135 % of control | T/C (dose: 40.0 mg/kg/injection, schedule: Q01DX005 (ip), vehicle: other): 134 % of control | T/C (dose: 40.0 mg/kg/injection, schedule: Q01DX006 (iv), vehicle: alkali diluted with saline): 141 % of control [6 of 7 alive] | T/C (dose: 40.0 mg/kg/injection, schedule: Q01DX007 (sc), vehicle: other): 135 % of control | T/C (dose: 40.0 mg/kg/injection, schedule: Q01DX009 (ip), vehicle: saline): 164 (3×) and 173 % of control | survivor count (dose: 40.0 mg/kg/injection, schedule: Q#A X Z (ip), vehicle: methylcellulose (MC)): 5 of 6 | T/C (dose: 45.0 mg/kg/injection, schedule: Q01DX Z (ip), vehicle: carboxymethylcellulose (CMC)): 127 % of control | T/C (dose: 50.0 mg/kg/injection, schedule: Q04DX003 (ip), vehicle: carboxymethylcellulose (CMC)): 129 % of control | T/C (dose: 60.0 mg/kg/injection, schedule: Q03DX Z (ip), vehicle: methylcellulose (MC)): 129 % of control | T/C (dose: 60.0 mg/kg/injection, schedule: Q## X008 (ip), vehicle: alkali diluted with saline): 129 % of control | T/C (dose: 80.0 mg/kg/injection, schedule: Q01DX005 (ip), vehicle: other): 145 % of control | T/C (dose: 80.0 mg/kg/injection, schedule: Q01DX009 (ip), vehicle: saline): 186, 197, 205, 230 % of control | survivor count (dose: 80.0 mg/kg/injection, schedule: Q01DX Z (ip), vehicle: methylcellulose (MC)): 4 of 6 | survivor count (dose: 90.0 mg/kg/injection, schedule: Q01DX Z (ip), vehicle: carboxymethylcellulose (CMC)): 5 of 6 | T/C (dose: 100.0 mg/kg/injection, schedule: Q04DX003 (ip), vehicle: carboxymethylcellulose (CMC)): 145 % of control | T/C (dose: 100.0 mg/kg/injection, schedule: Q## X003 (ip), vehicle: other): 130 % of control | T/C (dose: 100.0 mg/kg/injection, schedule: Q## X016 (ip), vehicle: other): 137 % of control | T/C (dose: 120.0 mg/kg/injection, schedule: Q01DX001 (ip), vehicle: other): 126 % of control | survivor count (dose: 120.0 mg/kg/injection, schedule: Q## X008 (ip), vehicle: alkali diluted with saline): 6 of 10 | T/C (dose: 140.0 mg/kg/injection, schedule: Q01DX001 (ip), vehicle: methylcellulose (MC)): 129 % of control | T/C (dose: 160.0 mg/kg/injection, schedule: Q01DX005 (ip), vehicle: other): 134 % of control | T/C (dose: 160.0 mg/kg/injection, schedule: Q01DX007 (ip), vehicle: other): 128 % of control | T/C (dose: 160.0 mg/kg/injection, schedule: Q01DX007 (sc), vehicle: other): 129 % of control | T/C (dose: 160.0 mg/kg/injection, schedule: Q01DX009 (ip), vehicle: saline): 86, 100, 195, 234 % of control | survivor count (dose: 160.0 mg/kg/injection, schedule: Q01DX Z (iv), vehicle: alkali diluted with saline): 7 of 7 | survivor count (dose: 160.0 mg/kg/injection, schedule: Q01DX Z (oral), vehicle: alkali diluted with saline): 4 of 7 | survivor count (dose: 180.0 mg/kg/injection, schedule: Q01DX Z (ip), vehicle: carboxymethylcellulose (CMC)): 2 of 6 | T/C (dose: 200.0 mg/kg/injection, schedule: Q## X003 (ip), vehicle: other): 145 % of control | T/C (dose: 240.0 mg/kg/injection, schedule: Q01DX001 (ip), vehicle: carboxymethylcellulose (CMC)): 135 % of control | T/C (dose: 280.0 mg/kg/injection, schedule: Q01DX001 (ip), vehicle: methylcellulose (MC)): 129 and 144 % of control [5 of 6 alive] | T/C (dose: 280.0 mg/kg/injection, schedule: Q07DX Z (ip), vehicle: methylcellulose (MC)): 139 % of control | survivor count (dose: 320.0 mg/kg/injection, schedule: Q01DX005 (ip), vehicle: other): 10 of 10 | survivor count (dose: 320.0 mg/kg/injection, schedule: Q01DX007 (ip), vehicle: other): 9 of 10 | survivor count (dose: 320.0 mg/kg/injection, schedule: Q01DX007 (sc), vehicle: other): 10 of 10 | survivor count (dose: 320.0 mg/kg/injection, schedule: Q01DX Z (iv), vehicle: alkali diluted with saline): 6 of 7 | survivor count (dose: 320.0 mg/kg/injection, schedule: Q01DX Z (oral), vehicle: alkali diluted with saline): 6 of 7 | T/C (dose: 400.0 mg/kg/injection, schedule: Q01DX001 (ip), vehicle: olive oil, sesame oil, peanut oil): 125 % of control | T/C (dose: 400.0 mg/kg/injection, schedule: Q01DX001 (sc), vehicle: carboxymethylcellulose (CMC)): 126 % of control | T/C (dose: 400.0 mg/kg/injection, schedule: Q## X016 (ip), vehicle: other): 148 % of control | T/C (dose: 480.0 mg/kg/injection, schedule: Q01DX001 (ip), vehicle: other): 125 % of control | T/C (dose: 480.0 mg/kg/injection, schedule: Q## X008 (ip), vehicle: other): 128 % of control | T/C (dose: 560.0 mg/kg/injection, schedule: Q01DX001 (ip), vehicle: methylcellulose (MC)): 133 % of control | T/C (dose: 560.0 mg/kg/injection, schedule: Q07DX Z (ip), vehicle: methylcellulose (MC)): 145 % of control | T/C (dose: 647.0 mg/kg/injection, schedule: Q01DX001 (ip), vehicle: carboxymethylcellulose (CMC)): 128 % of control | T/C (dose: 800.0 mg/kg/injection, schedule: Q01DX001 (sc), vehicle: carboxymethylcellulose (CMC)): 132 % of control [9 of 10 alive] | T/C (dose: 800.0 mg/kg/injection, schedule: Q01DX001 (sc), vehicle: other): 135 % of control | T/C (dose: 875.0 mg/kg/injection, schedule: Q01DX001 (ip), vehicle: alkali diluted with saline): 142 % of control | T/C (dose: 960.0 mg/kg/injection, schedule: Q01DX001 (ip), vehicle: alkali diluted with saline): 130 % of control | T/C (dose: 960.0 mg/kg/injection, schedule: Q01DX001 (ip), vehicle: other): 134 % of control | T/C (dose: 960.0 mg/kg/injection, schedule: Q## X008 (ip), vehicle: other): 147 % of control | T/C (dose: 1000.0 mg/kg/injection, schedule: Q01DX001 (ip), vehicle: alkali diluted with saline): 126 % of control | T/C (dose: 1000.0 mg/kg/injection, schedule: Q07DX Z (ip), vehicle: alkali diluted with saline): 131 % of control | T/C (dose: 1280.0 mg/kg/injection, schedule: Q01DX001 (ip), vehicle: alkali diluted with saline): 126 % of control | T/C (dose: 1600.0 mg/kg/injection, schedule: Q01DX001 (ip), vehicle: olive oil, sesame oil, peanut oil): 126 and 127 % of control [5 of 6 alive] | T/C (dose: 1600.0 mg/kg/injection, schedule: Q01DX001 (sc), vehicle: other): 148 % of control [9 of 10 alive]
